We go through three substances from patent US10238710B2 (CAREGEN CO., LTD., priority 2014, dated 2019).

A short description of the data set: general procedure: peptide synthesis; CTL resin. Conditions: whole synthesis; for crude yield: scale of the general procedure 700 mg resin.

“H-ACDGRTQALC-OH (cysteine pairing not given here)” showed a crude mass of 0.76 g and a crude yield of 84.4%.
The like results for “H-ACFTRTSHAC-OH (cysteine pairing not given here)” were, in that order, 0.77 g and 85.5%.
The like results for “H-ACRSAIGRPC-OH (cysteine pairing not given here)” were, in that order, 0.79 g and 87.8%.
